From patent publication US8088927B2, “Fungicide N-cycloalkyl-benzyl-amide derivatives” (Bayer Cropscience AG, priority 2006, dated 2012)
Some of these results come from one statement about several compounds together. For some assays here: At least one structure is not confirmed: it was looked up by name or label, or the drawing left a doubt.

Tests used:
[1] = tested on: Mycosphaerella graminicola; assay: In vivo preventive test on Mycosphaerella graminicola (wheat leaf spot); conditions: dose of 500 ppm, preventive spray, wheat plants, grading 21 to 28 days after contamination
[2] = tested on: Sphaerotheca fuliginea; assay: In vivo preventive test on Sphaerotheca fuliginea (cucurbit powdery mildew); conditions: dose of 500 ppm, preventive spray, gherkin plants, grading 21 days after contamination

SMILES | good (at least 70%) or total protection [1] | good (at least 70%) or total protection [2]
Cn1cc(C(=O)N(Cc2ccc(C#N)cc2)C2CC2)c(C(F)(F)F)n1 [Compound 337] | at least 70% | –
Cn1nc(C(=O)N(Cc2ccc(F)c(Oc3ccccc3)c2)C2CC2)c(C(F)(F)F)n1 [Compound 56] | at least 70% | –
Cc1nc(C(F)F)c(C(=O)N(Cc2ccc(Oc3ccccc3)cc2)C2CC2)s1 [Compound 176] | at least 70% | –
Cc1cccc(CN(C(=O)c2c(C)nn(C)c2F)C2CC2)c1 [Compound 283] | at least 70% | –
Cc1noc(C)c1C(=O)N(Cc1c(Cl)cc(Cl)cc1Cl)C1CC1 [Compound 513] | at least 70% | –
COc1ccc(OC)c(CN(C(=O)c2cn(C)nc2C(F)F)C2CC2)c1 [Compound 309] | – | at least 70%
CCOc1nn(C)cc1C(=O)N(C1CC1)C(C)c1ccc(Cl)cc1Cl (centres unmarked) [Compound 265] | – | at least 70%
Cn1ncc(C(=O)N(Cc2ccc(Cl)cc2Cl)C2CC2)c1Cl [Compound 465] | at least 70% | –
Cn1cc(C(=O)N(Cc2ccc(Cl)cc2Cl)C2CC2)c(I)n1 [Compound 254] | – | at least 70%
CC(c1cc(C(F)(F)F)ccc1Cl)N(C(=O)c1cn(C)cc1C(F)(F)F)C1CC1 (racemic) [Compound 124] | – | at least 70%
Cc1nn(C)c(F)c1C(=O)N(Cc1ccc(C(C)C)cc1)C1CC1 [Compound 289] | at least 70% | –
COc1nn(C)cc1C(=O)N(Cc1ccc(Oc2ccc(Cl)cc2Cl)cc1)C1CC1 [Compound 271] | at least 70% | –
CC(C)c1ccc(CN(C(=O)c2cn(C)cc2C(F)(F)F)C2CC2)cc1 [Compound 106] | at least 70% | –
Cc1nc(C(F)F)c(C(=O)N(Cc2cc(Cl)cc(Cl)c2)C2CC2)s1 [Compound 180] | at least 70% | –
Cc1nc(C(F)F)c(C(=O)N(Cc2ccc(Cl)cc2Cl)C2CC2)s1 [Compound 169] | – | at least 70%
Cn1cc(C(=O)N(Cc2ccc(Oc3ccc(Cl)cc3)cc2)C2CC2)c(C(F)F)n1 [Compound 489] | at least 70% | –
Cn1cc(C(=O)N(Cc2ccc(F)c(Oc3ccccc3)c2)C2CC2)c(C(F)(F)F)c1 [Compound 133] | at least 70% | –
COc1nn(C)cc1C(=O)N(Cc1ccc(Oc2ccccc2)cc1)C1CC1 [Compound 268] | – | at least 70%
CCC(c1ccc(Cl)cc1Cl)N(C(=O)c1ccsc1I)C1CC1 (centres unmarked) [Compound 83] | – | at least 70%
Cc1cc(C(=O)N(Cc2c(Cl)cc(Cl)cc2Cl)C2CC2)c(C(F)(F)F)o1 [Compound 14] | at least 70% | –
CC(c1ccc(Cl)cc1Cl)N(C(=O)c1cnn(C)c1Cl)C1CC1 (centres unmarked) [Compound 464] | at least 70% | –
O=C(c1snc(Cl)c1Cl)N(Cc1c(Cl)cc(Cl)cc1Cl)C1CC1 [Compound 529] | at least 70% | –
Cc1nc(C(F)(F)F)c(C(=O)N(Cc2ccc(Oc3ccccc3)cc2)C2CC2)s1 [Compound 194] | at least 70% | –
COc1nn(C)cc1C(=O)N(Cc1cc(C(F)(F)F)ccc1Cl)C1CC1 [Compound 449] | – | at least 70%

SMILES | good (at least 70%) or total protection [1] | good (at least 70%) or total protection [2]
Cc1nn(C)c(F)c1C(=O)N(C1CC1)C(C#N)c1ccc(Cl)cc1Cl (centres unmarked) [Compound 385] | – | at least 70%
Cn1ncc(C(=O)N(Cc2c(Cl)cc(Cl)cc2Cl)C2CC2)c1Cl [Compound 466] | at least 70% | –
Cc1nn(C)c(F)c1C(=O)N(C1CC1)C(C#N)c1ccc(Cl)cc1 (centres unmarked) [Compound 427] | at least 70% | –
COc1ccc(OC)c(CN(C(=O)c2cn(C)cc2C(F)(F)F)C2CC2)c1 [Compound 112] | at least 70% | –
Cc1cc(C(=O)N(Cc2cccc(OC(F)(F)F)c2)C2CC2)c(C)o1 [Compound 39] | at least 70% | –
COC(=O)C(c1ccc(Cl)cc1)N(C(=O)c1c(C)nn(C)c1F)C1CC1 (centres unmarked) [Compound 426] | at least 70% | –
Cn1cc(C(=O)N(Cc2cc(C(F)(F)F)ccc2Cl)C2CC2)c(C(F)(F)F)c1 [Compound 121] | at least 70% | –
CCOC(=O)C(c1cc(OC)ccc1OC)N(C(=O)c1cn(C)nc1C(F)F)C1CC1 (centres unmarked) [Compound 492] | at least 70% | –
COc1nn(C)cc1C(=O)N(Cc1ccc2c(c1)OCO2)C1CC1 [Compound 306] | at least 70% | –
Cc1ncoc1C(=O)N(Cc1ccc(Cl)cc1Cl)C1CC1 [Compound 150] | at least 70% | –
Cn1cc(C(=O)N(Cc2ccc(Cl)cc2Cl)C2CC2)c(C(F)(F)F)n1 [Compound 252] | – | at least 70%
Cn1cc(C(=O)N(Cc2cc(Cl)cc(Cl)c2)C2CC2)c(C(F)(F)F)n1 [Compound 332] | at least 70% | –
Cc1nc(C(F)(F)F)c(C(=O)N(Cc2ccc(F)c(Oc3ccccc3)c2)C2CC2)s1 [Compound 205] | at least 70% | –
O=C(c1ccsc1I)N(Cc1cc2c(cc1Cl)OCO2)C1CC1 [Compound 81] | at least 70% | –
Cn1cc(C(=O)N(Cc2ccc(Cl)cc2Cl)C2CC2)c(C(F)(F)F)c1 [Compound 98] | – | at least 70%
CCOc1nn(C)cc1C(=O)N(Cc1ccc(C(F)(F)F)cc1)C1CC1 [Compound 261] | at least 70% | –
Cc1nc(C(F)F)c(C(=O)N(Cc2ccc(C(C)C)cc2)C2CC2)s1 [Compound 183] | at least 70% | –
Cn1cc(C(=O)N(Cc2ccc(Oc3ccccc3)cc2)C2CC2)c(C(F)F)n1 [Compound 244] | at least 70% | –
Cn1cc(C(=O)N(C2CC2)C(C#N)c2cccc3c2OC(F)(F)O3)c(C(F)(F)F)c1 (racemic) [Compound 141] | at least 70% | –
CCOc1nn(C)cc1C(=O)N(Cc1c(Cl)cc(Cl)cc1Cl)C1CC1 [Compound 257] | at least 70% | –
Cn1cc(C(=O)N(Cc2ccc(Oc3ccccc3)cc2)C2CC2)c(C(F)(F)F)c1 [Compound 101] | at least 70% | –
Cc1ncoc1C(=O)N(Cc1c(Cl)cc(Cl)cc1Cl)C1CC1 [Compound 154] | at least 70% | –
Cc1cc(C(=O)N(Cc2ccc(Cl)cc2Cl)C2CC2)no1 [Compound 508] | at least 70% | –
Cn1cc(C(=O)N(Cc2ccc(C#N)cc2)C2CC2)c(C(F)(F)F)c1 [Compound 108] | at least 70% | –

SMILES | good (at least 70%) or total protection [1] | good (at least 70%) or total protection [2]
Cn1cc(C(=O)N(Cc2ccc3c(c2)OCO3)C2CC2)c(C(F)(F)F)c1 [Compound 111] | at least 70% | –
Cn1cc(C(=O)N(Cc2ccc(Oc3ccc(C(F)(F)F)cc3)cc2)C2CC2)c(C(F)F)n1 [Compound 488] | at least 70% | –
COc1nn(C)cc1C(=O)N(Cc1cc(Cl)cc(Cl)c1)C1CC1 [Compound 282] | at least 70% | –
COc1ccccc1CN(C(=O)c1cn(C)cc1C(F)(F)F)C1CC1 [Compound 109] | at least 70% | –
CCn1nc(C)c(C(=O)N(C2CC2)C(C)c2ccc(C(F)(F)F)cc2)c1F (centres unmarked) [Compound 440] | – | at least 70%
Cn1cc(C(=O)N(Cc2ccc(Oc3ccc(Cl)cc3Cl)cc2)C2CC2)c(C(F)(F)F)c1 [Compound 118] | at least 70% | –
O=C(c1ccsc1I)N(Cc1ccc(Cl)cc1Cl)C1CC1 [Compound 84] | at least 70% | –
Cn1nc(C(=O)N(Cc2ccc(Cl)cc2Cl)C2CC2)c(C(F)(F)F)n1 [Compound 54] | at least 70% | –
Cc1noc(C)c1C(=O)N(C1CC1)C(C)c1ccc(Cl)cc1Cl (centres unmarked) [Compound 520] | at least 70% | –
Cc1nn(C)c(F)c1C(=O)N(Cc1ccc2c(c1)OCO2)C1CC1 [Compound 304] | at least 70% | –
Cc1noc(C)c1C(=O)N(Cc1ccc(Cl)cc1Cl)C1CC1 [Compound 511] | at least 70% | –
Cc1occc1C(=O)N(Cc1c(Cl)cc(Cl)cc1Cl)C1CC1 [Compound 13] | at least 70% | –
Cn1cc(C(=O)N(Cc2ccc(C(F)(F)F)cc2Cl)C2CC2)c(I)n1 [Compound 250] | at least 70% | –
CC(C)c1ccc(CN(C(=O)c2cn(C)nc2C(F)(F)F)C2CC2)cc1 [Compound 335] | at least 70% | –
CCOC(=O)C(c1cc(OC)ccc1OC)N(C(=O)c1c(C)nn(C)c1F)C1CC1 (centres unmarked) [Compound 410] | at least 70% | –
Cc1cc(C(=O)N(Cc2cc(C(F)(F)F)ccc2Cl)C2CC2)c(C)o1 [Compound 49] | at least 70% | –
CC(c1ccc(Cl)cc1Cl)N(C(=O)c1snc(Cl)c1Cl)C1CC1 (centres unmarked) [Compound 532] | at least 70% | –
Cc1nn(C)c(F)c1C(=O)N(Cc1ccc(C#N)cc1)C1CC1 [Compound 295] | at least 70% | –
COc1nn(C)cc1C(=O)N(Cc1ccc(C(F)(F)F)cc1)C1CC1 [Compound 259] | at least 70% | –
Cc1cccc(CN(C(=O)c2cn(C)cc2C(F)(F)F)C2CC2)c1 [Compound 104] | at least 70% | –
Cc1ccoc1C(=O)N(Cc1c(Cl)cc(Cl)cc1Cl)C1CC1 [Compound 5] | at least 70% | –
Cc1cccc(CN(C(=O)c2cn(C)nc2C(F)(F)F)C2CC2)c1 [Compound 333] | at least 70% | –
COc1nn(C)cc1C(=O)N(Cc1ccc(C#N)cc1)C1CC1 [Compound 297] | at least 70% | –
